# The exact form of at least one protein or probe is not confirmed. Results from cells or extracts need not show a direct contact. At least one verdict rests on a figure or table, not on a statement of the authors.
# Biological target: SEB-1 (native, identified by MS) (Neurospora crassa) (UniProt Q7SH58)
# Assay: pull-down, MS identification
# Settings: 5'-biotin on strand 1; protein in an extract; residues 1-575; label: biotin
sequence,measurement,value
GTAATACGACTCTTCAAGGGGGATTCAAGGGGGAT (double strand) [bioSTRE1-1F/STRE1-2R],binding result,binds

# From PMC4856084
